Further values from the same series stand in other lists.
Assays:
Format in all cases: cell-based
Settings in all cases: U-87MG ATCC
[1] = Inhibition of RTK/PI3K/AKT/mTOR signaling in human U87 cells assessed as down regulation of PPP1R12C gene expression at cytotoxic IC50 measured after 48 hrs relative to control
[2] = Inhibition of RTK/PI3K/AKT/mTOR signaling in human U87 cells assessed as down regulation of RFK gene expression at cytotoxic IC50 measured after 48 hrs relative to control
[3] = Inhibition of RTK/PI3K/AKT/mTOR signaling in human U87 cells assessed as up regulation of BBX gene expression at cytotoxic IC50 measured after 48 hrs relative to control
[4] = Inhibition of RTK/PI3K/AKT/mTOR signaling in human U87 cells assessed as down regulation of RSRP1 gene expression at cytotoxic IC50 measured after 48 hrs relative to control
[5] = Inhibition of RTK/PI3K/AKT/mTOR signaling in human U87 cells assessed as down regulation of NFKBIB gene expression at cytotoxic IC50 measured after 48 hrs relative to control
[6] = Inhibition of RTK/PI3K/AKT/mTOR signaling in human U87 cells assessed as up regulation of cystatin A gene expression at cytotoxic IC50 measured after 48 hrs relative to control
[7] = Inhibition of RTK/PI3K/AKT/mTOR signaling in human U87 cells assessed as down regulation of MSX2 gene expression at cytotoxic IC50 measured after 48 hrs relative to control
[8] = Inhibition of RTK/PI3K/AKT/mTOR signaling in human U87 cells assessed as up regulation of topoisomerase (DNA) I gene expression at cytotoxic IC50 measured after 48 hrs relative to control
[9] = Inhibition of RTK/PI3K/AKT/mTOR signaling in human U87 cells assessed as up regulation of aspartyl-tRNA synthetase gene expression at cytotoxic IC50 measured after 48 hrs relative to control
[10] = Inhibition of RTK/PI3K/AKT/mTOR signaling in human U87 cells assessed as down regulation of OAT gene expression at cytotoxic IC50 measured after 48 hrs relative to control
[11] = Inhibition of RTK/PI3K/AKT/mTOR signaling in human U87 cells assessed as down regulation of LSM3 gene expression at cytotoxic IC50 measured after 48 hrs relative to control
[12] = Inhibition of RTK/PI3K/AKT/mTOR signaling in human U87 cells assessed as down regulation of ITGA2 gene expression at cytotoxic IC50 measured after 48 hrs relative to control
[13] = Inhibition of RTK/PI3K/AKT/mTOR signaling in human U87 cells assessed as up regulation of BCL2 interacting killer gene expression at cytotoxic IC50 measured after 48 hrs relative to control
[14] = Inhibition of RTK/PI3K/AKT/mTOR signaling in human U87 cells assessed as up regulation of 1-acylglycerol-3-phosphate O-acyltransferase 4 gene expression at cytotoxic IC50 measured after 48 hrs relative to control
[15] = Inhibition of RTK/PI3K/AKT/mTOR signaling in human U87 cells assessed as up regulation of carbohydrate sulfotransferase 12 gene expression at cytotoxic IC50 measured after 48 hrs relative to control
[16] = Inhibition of RTK/PI3K/AKT/mTOR signaling in human U87 cells assessed as up regulation of spen family transcriptional repressor gene expression at cytotoxic IC50 measured after 48 hrs relative to control
[17] = Inhibition of RTK/PI3K/AKT/mTOR signaling in human U87 cells assessed as up regulation of LRFN1 gene expression at cytotoxic IC50 measured after 48 hrs relative to control
[18] = Inhibition of RTK/PI3K/AKT/mTOR signaling in human U87 cells assessed as up regulation of NOVA alternative splicing regulator 2 gene expression at cytotoxic IC50 measured after 48 hrs relative to control
[19] = Inhibition of RTK/PI3K/AKT/mTOR signaling in human U87 cells assessed as up regulation of zinc finger protein 22 gene expression at cytotoxic IC50 measured after 48 hrs relative to control
[20] = Inhibition of RTK/PI3K/AKT/mTOR signaling in human U87 cells assessed as down regulation of ZFR gene expression at cytotoxic IC50 measured after 48 hrs relative to control
[21] = Inhibition of RTK/PI3K/AKT/mTOR signaling in human U87 cells assessed as down regulation of SH3BP5 gene expression at cytotoxic IC50 measured after 48 hrs relative to control
[22] = Inhibition of RTK/PI3K/AKT/mTOR signaling in human U87 cells assessed as up regulation of potassium channel tetramerization domain containing 11 gene expression at cytotoxic IC50 measured after 48 hrs relative to control
[23] = Inhibition of RTK/PI3K/AKT/mTOR signaling in human U87 cells assessed as down regulation of MED10 gene expression at cytotoxic IC50 measured after 48 hrs relative to control
[24] = Inhibition of RTK/PI3K/AKT/mTOR signaling in human U87 cells assessed as up regulation of NADPH oxidase activator 1 gene expression at cytotoxic IC50 measured after 48 hrs relative to control
[25] = Inhibition of RTK/PI3K/AKT/mTOR signaling in human U87 cells assessed as down regulation of GLE1 gene expression at cytotoxic IC50 measured after 48 hrs relative to control
[26] = Inhibition of RTK/PI3K/AKT/mTOR signaling in human U87 cells assessed as down regulation of GADD45G gene expression at cytotoxic IC50 measured after 48 hrs relative to control
[27] = Inhibition of RTK/PI3K/AKT/mTOR signaling in human U87 cells assessed as up regulation of SYNCRIP gene expression at cytotoxic IC50 measured after 48 hrs relative to control
[28] = Inhibition of RTK/PI3K/AKT/mTOR signaling in human U87 cells assessed as up regulation of SLC25A5 gene expression at cytotoxic IC50 measured after 48 hrs relative to control
[29] = Inhibition of RTK/PI3K/AKT/mTOR signaling in human U87 cells assessed as down regulation of SYF2 gene expression at cytotoxic IC50 measured after 48 hrs relative to control
[30] = Inhibition of RTK/PI3K/AKT/mTOR signaling in human U87 cells assessed as up regulation of inositol-3-phosphate synthase 1 gene expression at cytotoxic IC50 measured after 48 hrs relative to control
[31] = Inhibition of RTK/PI3K/AKT/mTOR signaling in human U87 cells assessed as up regulation of aspartate beta-hydroxylase gene expression at cytotoxic IC50 measured after 48 hrs relative to control
[32] = Inhibition of RTK/PI3K/AKT/mTOR signaling in human U87 cells assessed as up regulation of adenosine deaminase, tRNA specific 2 gene expression at cytotoxic IC50 measured after 48 hrs relative to control

SMILES: CC(=O)C(=NNc1ccccc1C#N)C(C)=O
- log2FC [1]: -0.615
- log2FC [2]: -0.916
- log2FC [3]: 0.581
- log2FC [4]: -1.04
- log2FC [5]: -0.811
- log2FC [6]: 0.844
- log2FC [7]: -1.75
- log2FC [8]: 0.829
- log2FC [9]: 1.35
- log2FC [10]: -0.619
- log2FC [11]: -0.842
- log2FC [12]: -1.34
- log2FC [13]: 1.18
- log2FC [14]: 1.17
- log2FC [15]: 0.921
- log2FC [16]: 0.811
- log2FC [17]: 1.72
- log2FC [18]: 1.55
- log2FC [19]: 1.01
- log2FC [20]: -0.472
- log2FC [21]: -1.11
- log2FC [22]: 0.891
- log2FC [23]: -0.778
- log2FC [24]: 1.37
- log2FC [25]: -0.861
- log2FC [26]: -4.43
- log2FC [27]: 0.539
- log2FC [28]: 0.541
- log2FC [29]: -0.489
- log2FC [30]: 1.32
- log2FC [31]: 1.14
- log2FC [32]: 1.3

Reference: ChEMBL document CHEMBL4316593 (Eur J Med Chem, 2019)
